Reference: publication PMC12679367
These are yes or no findings as the source states them, for the method shown. In cells and extracts the contact can be indirect. Some results given as binding are weak or reduced against the parent protein; the word gives no strength.

Protein sequences, listed by entry. Tags and fused reporters are not part of them. Residues count along the entry.
UniProt O00217, residues 35-210: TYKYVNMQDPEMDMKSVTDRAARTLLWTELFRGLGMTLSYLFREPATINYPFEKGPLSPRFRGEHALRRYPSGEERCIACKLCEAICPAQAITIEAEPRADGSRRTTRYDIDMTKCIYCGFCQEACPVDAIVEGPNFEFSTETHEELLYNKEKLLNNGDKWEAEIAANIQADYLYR

Molecular target: T1, wild-type NRF2 from the WT-NRF2 plasmid (UniProt Q16236)
T1 sequence: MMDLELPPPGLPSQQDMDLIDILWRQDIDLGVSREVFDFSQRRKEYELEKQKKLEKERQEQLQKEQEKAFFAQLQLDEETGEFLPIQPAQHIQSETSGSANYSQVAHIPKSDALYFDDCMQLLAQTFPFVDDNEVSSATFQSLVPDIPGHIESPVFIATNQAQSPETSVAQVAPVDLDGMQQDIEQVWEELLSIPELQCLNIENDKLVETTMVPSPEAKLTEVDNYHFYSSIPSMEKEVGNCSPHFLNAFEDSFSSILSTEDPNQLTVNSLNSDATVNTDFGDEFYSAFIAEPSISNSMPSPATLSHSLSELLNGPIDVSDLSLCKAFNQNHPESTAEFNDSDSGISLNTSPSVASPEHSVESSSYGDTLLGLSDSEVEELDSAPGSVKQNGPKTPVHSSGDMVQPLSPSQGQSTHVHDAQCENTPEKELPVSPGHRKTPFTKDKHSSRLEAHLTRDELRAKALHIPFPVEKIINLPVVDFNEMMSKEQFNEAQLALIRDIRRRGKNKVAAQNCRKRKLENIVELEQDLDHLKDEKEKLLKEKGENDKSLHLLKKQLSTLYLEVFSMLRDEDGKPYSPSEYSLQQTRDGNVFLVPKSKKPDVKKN
Assay: co-IP; HEK293T cells transfected with WT-NRF2 or Mut-NRF2 plasmid (Figure 6E); captured by anti-NRF2 antibody with Protein A/G PLUS-Agarose, blot with anti-NDUFS8; NDUFS8/NRF2 ratio quantified, n = 6

NADH dehydrogenase (ubiquinone) Fe-S protein 8 (NDUFS8) in HEK293T cells (from UniProt O00217 35-210)
binding: binds
